Measurements taken from PubChem BioAssay AID330 (DTP/NCI, 2004).
The list does not hold the whole screen: it is rich in T/C values a quarter to a half above the control, in often repeated tests (any T/C) and in doses without a T/C. Other doses and runs of a compound stand elsewhere. T/C is the treated group as % of the vehicle group. Some entries give survivors of the animals treated and no T/C: the source files T/C as zero there, which appears to mark a toxic dose or a test without result, not a measured value. Some doses without a T/C left all or most animals alive at the check, yet need not have been tolerated: the source hardly ever lists a survival T/C far under the control, and the zero likely stands for such cases as well. Counts of survivors are from the toxicity check (mostly the fifth day) where no day follows; animals may have died later. Schedules are NCI's codes, read here as Q, the interval in days (D) or hours (H), X, the number of doses. Additions like (4×) say how often a value occurs here. Some entries were tested several times; the results are listed from low to high. Where survival is the endpoint, the PubChem record calls one and a half times the control and up active, and a quarter to a half above the control has no call in these data; cut-offs in other NCI protocols can differ. Some T/C values are followed by the survivors on the day toxicity was checked, most often the fifth; where none is given, no animal had died by that day.

Test system: P388 leukemia ip, CD2F1 mice, survival T/C
Experiment: NCI In Vivo Anticancer Drug Screen. Data for tumor model P388 Leukemia (intraperitoneal) in CD2F1 (CDF1) mice
Details: T/C endpoint: median survival time, higher T/C = longer survival
[1] = dose: 50.0 mg/kg/injection, schedule: Q01DX005 (ip), vehicle: saline with Tween-80
[2] = dose: 200.0 mg/kg/injection, schedule: Q01DX005 (ip), vehicle: saline with Tween-80
[3] = dose: 120.0 mg/kg/injection, schedule: Q01DX005 (ip), vehicle: Klucel (hydroxypropylcellulose) (HPC)
[4] = dose: 50.0 mg/kg/injection, schedule: Q01DX009 (ip), vehicle: saline with Tween-80
[5] = dose: 100.0 mg/kg/injection, schedule: Q01DX009 (ip), vehicle: saline with Tween-80
[6] = dose: 200.0 mg/kg/injection, schedule: Q01DX009 (ip), vehicle: saline with Tween-80
[7] = dose: 120.0 mg/kg/injection, schedule: Q01DX005 (ip), vehicle: saline with Tween-80
[8] = dose: 240.0 mg/kg/injection, schedule: Q01DX005 (ip), vehicle: saline with Tween-80
[9] = dose: 240.0 mg/kg/injection, schedule: Q01DX005 (ip), vehicle: Klucel (hydroxypropylcellulose) (HPC)
[10] = dose: 25.0 mg/kg/injection, schedule: Q01DX005 (ip), vehicle: Klucel (hydroxypropylcellulose) (HPC)
[11] = dose: 50.0 mg/kg/injection, schedule: Q01DX005 (ip), vehicle: Klucel (hydroxypropylcellulose) (HPC)
[12] = dose: 100.0 mg/kg/injection, schedule: Q01DX005 (ip), vehicle: Klucel (hydroxypropylcellulose) (HPC)
[13] = dose: 200.0 mg/kg/injection, schedule: Q01DX005 (ip), vehicle: Klucel (hydroxypropylcellulose) (HPC)
[14] = dose: 400.0 mg/kg/injection, schedule: Q04DX003 (ip), vehicle: saline with Tween-80

With COc1cc2c[n+](C)c3c4cc(OC)c(OC)cc4c(OCc4ccccc4)cc3c2cc1OC the T/C (dose: 12.5 mg/kg/injection, schedule: Q01DX005 (ip), vehicle: saline with Tween-80) was 128 % of control, the T/C (dose: 25.0 mg/kg/injection, schedule: Q01DX005 (ip), vehicle: saline with Tween-80, evaluated on day 20) was 139 % of control and the T/C (dose: 25.0 mg/kg/injection, schedule: Q01DX005 (ip), vehicle: saline with Tween-80, evaluated on day 30) was 142 % of control. The survivor count [1] was 6 of 6 (2×), the survivor count (dose: 100.0 mg/kg/injection, schedule: Q01DX005 (ip), vehicle: saline with Tween-80) was 2 of 6 and the survivor count [2] was 0 of 6.

With CN1C(=O)N(C)C2(C(=O)N(C)C(=O)N2C)N(C)C1=O the survivor count [3] was 5 of 6.

In the case of C=C(CCCC)[Se]c1ccccc1, the T/C [4] is reported as 135 % of control, the survivor count [5] is reported as 5 of 6 and the survivor count [6] is reported as 1 of 6, 3 of 6, 4 of 6.

In the case of N=C(N)COc1ccccc1, the survivor count (dose: 100.0 mg/kg/injection, schedule: Q01DX005 (ip), vehicle: saline) is reported as 3 of 5 and the survivor count (dose: 200.0 mg/kg/injection, schedule: Q01DX005 (ip), vehicle: saline) is reported as 1 of 5.

With O=C(Nc1ccc(Br)cn1)c1sc2ccccc2c1Cl the survivor count [4] was 6 of 6.

CCOC(=O)c1c(N)[nH]c(SSc2[nH]c(N)c(C(=O)OCC)c2C(=O)OCC)c1C(=O)OCC was tested, and the T/C (dose: 150.0 mg/kg/injection, schedule: Q01DX009 (ip), vehicle: saline) was 132 % of control.

For Cc1ccc(-n2c(CSc3ccc(Cl)cc3)nnc2SCc2nc3ccccc3[nH]2)cc1, the survivor count [7] was 6 of 6 and the survivor count [8] was 6 of 6.

With N#C/C(=C1/OC(=N)C(c2ccc(Cl)cc2)C1=O)c1ccc(Cl)cc1 (stereo not given) the survivor count [2] was 2 of 6.

With CC(C)C(=O)OC1(C(C)c2ccccc2)C(=O)NC(=O)NC1=O (stereo not given) the survivor count (dose: 30.0 mg/kg/injection, schedule: Q01DX005 (ip), vehicle: Klucel (hydroxypropylcellulose) (HPC)) was 0 of 6, the survivor count (dose: 60.0 mg/kg/injection, schedule: Q01DX005 (ip), vehicle: Klucel (hydroxypropylcellulose) (HPC)) was 0 of 6 and the survivor count [3] was 0 of 6. For the same compound, the survivor count [9] was 0 of 6.

O=C(Cc1cccc(CC(=O)c2ccccc2)n1)c1ccccc1 was tested, and the survivor count [7] was 6 of 6 and the survivor count [8] was 6 of 6.

CCCCCCCCCC(C)(O)C#CC(C)(O)CCCCCCCCC (stereo not given) was tested, and the survivor count (dose: 100.0 mg/kg/injection, schedule: Q04DX003 (ip), vehicle: saline with Tween-80) was 4 of 6, the survivor count (dose: 200.0 mg/kg/injection, schedule: Q04DX003 (ip), vehicle: saline with Tween-80) was 6 of 6 and the survivor count (dose: 400.0 mg/kg/injection, schedule: Q01DX009 (ip), vehicle: saline with Tween-80) was 4 of 6.

With N#Cc1ccc(=O)[nH]c1O the survivor count [6] was 6 of 6.

With Oc1cccc(/C=N/N=C/c2cccc(O)c2O)c1O the survivor count (dose: 200.0 mg/kg/injection, schedule: Q01DX009 (ip), vehicle: Klucel (hydroxypropylcellulose) (HPC)) was 6 of 6.

For CCN1N=Nc2ccccc2C1O (stereo not given), the survivor count (dose: 100.0 mg/kg/injection, schedule: Q04DX002 (ip), vehicle: saline with Tween-80) was 5 of 6, the survivor count (dose: 200.0 mg/kg/injection, schedule: Q04DX002 (ip), vehicle: saline with Tween-80) was 0 of 6 and the survivor count (dose: 400.0 mg/kg/injection, schedule: Q04DX002 (ip), vehicle: saline with Tween-80) was 0 of 6.

For O=c1[nH]c(=O)c2nc(-c3ccc4c(c3)OCO4)cnc2[nH]1, the survivor count (dose: 400.0 mg/kg/injection, schedule: Q04DX003 (ip), vehicle: lactic acid) was 6 of 6.

CC1=C(C2CO2)C(=O)c2ccccc2C1=O (stereo not given) was tested, and the survivor count (dose: 12.5 mg/kg/injection, schedule: Q01DX005 (ip), vehicle: Klucel (hydroxypropylcellulose) (HPC)) was 1 of 6, the survivor count [10] was 0 of 6 and the survivor count [11] was 0 of 6. The survivor count [12] was 0 of 6 and the survivor count [13] was 0 of 6.

For Cn1c(=S)[nH]c2sc3c(c2c1=O)CCCC3, the survivor count (dose: 60.0 mg/kg/injection, schedule: Q01DX005 (ip), vehicle: saline with Tween-80) was 4 of 6.

In the case of O=P(O)(O)SP(=O)(O)O.[Zn+2], the survivor count (dose: 400.0 mg/kg/injection, schedule: Q04DX003 (ip), vehicle: Klucel (hydroxypropylcellulose) (HPC)) is reported as 4 of 6.

For CC1=C(O)C(=O)C=C2C1=CC=C1[C@@]2(C)CC[C@@]2(C)[C@@H]3C[C@](C)(C(=O)O)CC[C@]3(C)CC[C@]12C, the survivor count (dose: 3.12 mg/kg/injection, schedule: Q01DX009 (ip), vehicle: suspension in saline) was 6 of 6, the survivor count (dose: 6.25 mg/kg/injection, schedule: Q01DX009 (ip), vehicle: suspension in saline) was 6 of 6 and the survivor count (dose: 12.5 mg/kg/injection, schedule: Q01DX009 (ip), vehicle: suspension in saline) was 5 of 6 and 6 of 6. The survivor count (dose: 25.0 mg/kg/injection, schedule: Q01DX009 (ip), vehicle: suspension in saline) was 0 of 6 and 2 of 6.

With COC(=O)Cc1cccc2c(=O)cc(-c3cccs3)oc12 the T/C (dose: 200.0 mg/kg/injection, schedule: Q01DX009 (ip), vehicle: saline) was 135 % of control [5 of 6 alive].

CCOC(=O)c1nnc2cc(-c3ccccc3)nn2c1-c1ccccc1 was tested, and the survivor count [8] was 6 of 6.

In the case of c1ccc2c(c1)ccc1c2c[n+](CCCCCCCC[n+]2cc3c4ccccc4ccc3c3ccccc32)c2ccccc12, the T/C (dose: 0.39 mg/kg/injection, schedule: Q01DX009 (ip), vehicle: distilled water + Tween-80) is reported as 149 % of control.

CCCCCN(CCC)CCCCCCCCCN1CCCc2cc(OC)ccc21 was tested, and the survivor count (dose: 200.0 mg/kg/injection, schedule: Q01DX005 (ip), vehicle: saline + Tween-80 + alcohol) was 3 of 5.

With CCOC(=O)CCC(NC(=O)N(CCCl)CCCl)C(=O)OCC (stereo not given) the survivor count [14] was 6 of 6.

With C/C=C/c1cc2c(c(=O)o1)C(=O)[C@@H](O)[C@H](C)O2 the T/C [5] was 132 and 136 % of control and the T/C (dose: 150.0 mg/kg/injection, schedule: Q01DX009 (ip), vehicle: saline with Tween-80) was 135 % of control.

For O=C(O)c1c(CS(F)(F)(F)(F)F)cc(=O)oc1CS(F)(F)(F)(F)F, the survivor count [2] was 3 of 5.

C=Cc1cc(OC)c2c(c1)c(=O)oc1c2cc(OC)c2c(O)ccc(C3OC(C(C)O)C(O)C3O)c21 (stereo not given) was tested, and the T/C (dose: 4.0 mg/kg/injection, schedule: Q04DX003 (ip), vehicle: DMSO) was 127 % of control, the T/C (dose: 8.0 mg/kg/injection, schedule: Q04DX003 (ip), vehicle: DMSO) was 135 % of control and the T/C (dose: 16.0 mg/kg/injection, schedule: Q04DX003 (ip), vehicle: DMSO) was 148 % of control. The T/C [10] was 131 and 142 % of control [4 of 5 alive], the T/C [11] was 141 and 142 % of control and the T/C [12] was 136 and 147 % of control. For the same compound, the T/C [3] was 142 % of control, the T/C [13] was 140 % of control and the survivor count [9] was 6 of 6.

With CC1(C)CC2(C)OC(=O)c3ccccc3N2C(=S)N1 (stereo not given) the survivor count [7] was 6 of 6 and the survivor count [8] was 6 of 6.

In the case of C/C(Cl)=C/CN(C/C=C(/C)Cl)CCO, the survivor count [2] is reported as 0 of 6.

In the case of Cc1ccc2ccc(N(C)C)cc2n1, the survivor count [6] is reported as 3 of 6.

C[C@]12CCCC[C@@H]1CC[C@@H]1[C@@H]2[C@@H](O)C[C@]2(C)[C@@H](O)CC[C@@H]12 was tested, and the survivor count [14] was 2 of 6.

For NNC(=O)CNc1ccccc1F, the survivor count (dose: 240.0 mg/kg/injection, schedule: Q01DX005 (ip), vehicle: saline) was 0 of 6.

For O=c1ccc2cc3ccoc3c(OCCCCCCCCCCCCOc3c4occc4cc4ccc(=O)oc34)c2o1, the survivor count [1] was 6 of 6, the survivor count (dose: 100.0 mg/kg/injection, schedule: Q01DX001 (ip), vehicle: saline with Tween-80) was 6 of 6 and the survivor count (dose: 200.0 mg/kg/injection, schedule: Q01DX001 (ip), vehicle: saline with Tween-80) was 6 of 6. For the same compound, the survivor count (dose: 400.0 mg/kg/injection, schedule: Q01DX001 (ip), vehicle: saline with Tween-80) was 6 of 6.
